# Measurements reported in patent US20150065561A1 (GEORGIA STATE UNIVERSITY RESEARCH FOUNDATION, published 2015).
# Chains of the proteins cited; added tags and fusions are not shown.
# UniProt Q9UNE7: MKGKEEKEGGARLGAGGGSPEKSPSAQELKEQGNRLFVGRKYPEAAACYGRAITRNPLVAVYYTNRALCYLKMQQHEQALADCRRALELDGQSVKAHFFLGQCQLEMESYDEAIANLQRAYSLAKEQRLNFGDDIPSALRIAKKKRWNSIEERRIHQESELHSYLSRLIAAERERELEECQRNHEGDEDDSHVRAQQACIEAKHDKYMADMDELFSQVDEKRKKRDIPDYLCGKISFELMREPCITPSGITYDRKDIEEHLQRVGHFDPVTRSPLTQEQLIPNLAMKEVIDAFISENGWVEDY
# UniProt P49841: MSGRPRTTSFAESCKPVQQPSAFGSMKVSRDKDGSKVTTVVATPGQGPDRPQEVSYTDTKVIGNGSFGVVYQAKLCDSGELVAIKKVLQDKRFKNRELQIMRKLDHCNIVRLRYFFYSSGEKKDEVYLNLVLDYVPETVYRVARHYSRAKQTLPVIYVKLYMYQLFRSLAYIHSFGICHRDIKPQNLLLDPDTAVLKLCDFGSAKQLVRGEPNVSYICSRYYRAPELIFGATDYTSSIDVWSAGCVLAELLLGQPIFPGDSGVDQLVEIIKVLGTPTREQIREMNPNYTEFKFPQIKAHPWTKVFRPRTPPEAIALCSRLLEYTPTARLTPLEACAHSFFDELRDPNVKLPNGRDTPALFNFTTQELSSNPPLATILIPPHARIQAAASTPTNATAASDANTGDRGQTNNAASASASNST
# These are yes or no findings as the source states them, for the method shown. Binding seen in cells or lysates may run through a third protein. Some binding calls cover weakened binding; strength is not graded here.
# Legend:
# [1] = target: Myc-CHIP (UniProt Q9UNE7); test: pull-down from co-transfected cells: HA-GSK3β pulled down with HA probe, immunoblot with anti-Myc antibody (FIG. 4i)
# [2] = target: recombinant CHIP protein (GST-CHIP) (UniProt Q9UNE7); test: in vitro GST pull-down: His-GSK3β incubated with GST-CHIP, pulled down with Sepharose 4B beads, immunoblot against His (FIG. 4h)
binding [1],binding [2],Substance
binds,,HA-GSK3β (from UniProt P49841 1-420) (enzyme)
,binds,recombinant GSK3β protein (His-GSK3β) (from UniProt P49841 1-420) (enzyme)
